Library screen at single concentrations

Protein sequences, listed by entry. Tags and fused reporters are not part of them. Residues count along the entry.
UniProt P9WPC5, whole entry: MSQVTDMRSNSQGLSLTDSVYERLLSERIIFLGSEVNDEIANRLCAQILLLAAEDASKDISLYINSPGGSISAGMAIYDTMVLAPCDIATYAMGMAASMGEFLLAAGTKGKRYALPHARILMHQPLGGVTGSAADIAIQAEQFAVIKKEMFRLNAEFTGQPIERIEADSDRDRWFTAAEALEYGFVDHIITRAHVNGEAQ
UniProt P9WPC3, whole entry partner: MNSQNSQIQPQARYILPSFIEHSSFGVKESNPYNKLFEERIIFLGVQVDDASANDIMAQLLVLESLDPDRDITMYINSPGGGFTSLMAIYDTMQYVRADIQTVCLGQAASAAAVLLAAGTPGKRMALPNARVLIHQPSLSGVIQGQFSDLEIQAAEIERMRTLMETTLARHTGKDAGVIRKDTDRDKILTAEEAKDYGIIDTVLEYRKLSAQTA
UniProt Q8IDJ8, 1-583: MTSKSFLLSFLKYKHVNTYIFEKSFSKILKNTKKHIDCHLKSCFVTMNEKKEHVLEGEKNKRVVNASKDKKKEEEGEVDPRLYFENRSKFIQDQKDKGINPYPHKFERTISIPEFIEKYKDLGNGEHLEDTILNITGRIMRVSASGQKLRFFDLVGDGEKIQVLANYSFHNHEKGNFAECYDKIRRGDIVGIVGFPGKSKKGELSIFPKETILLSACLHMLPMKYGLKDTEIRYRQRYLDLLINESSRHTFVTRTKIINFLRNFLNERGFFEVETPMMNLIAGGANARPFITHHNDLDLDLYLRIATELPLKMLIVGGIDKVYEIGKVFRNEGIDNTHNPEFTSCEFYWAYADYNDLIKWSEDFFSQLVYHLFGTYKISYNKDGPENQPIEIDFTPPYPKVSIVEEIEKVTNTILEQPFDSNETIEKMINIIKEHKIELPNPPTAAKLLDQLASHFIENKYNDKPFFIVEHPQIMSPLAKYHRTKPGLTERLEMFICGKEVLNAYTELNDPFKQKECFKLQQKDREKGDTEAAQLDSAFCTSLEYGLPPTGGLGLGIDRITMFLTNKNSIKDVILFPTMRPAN
UniProt P9WFT3, whole entry: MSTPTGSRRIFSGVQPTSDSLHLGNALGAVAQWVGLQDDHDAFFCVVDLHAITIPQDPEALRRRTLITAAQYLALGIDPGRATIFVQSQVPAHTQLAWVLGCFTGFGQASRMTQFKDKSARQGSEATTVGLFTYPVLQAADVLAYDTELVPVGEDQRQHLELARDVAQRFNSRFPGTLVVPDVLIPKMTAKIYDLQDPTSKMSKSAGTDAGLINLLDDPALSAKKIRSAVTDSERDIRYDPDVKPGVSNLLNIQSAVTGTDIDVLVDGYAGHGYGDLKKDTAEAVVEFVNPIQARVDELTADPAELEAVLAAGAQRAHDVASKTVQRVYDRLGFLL
UniProt A4I591, 1-473: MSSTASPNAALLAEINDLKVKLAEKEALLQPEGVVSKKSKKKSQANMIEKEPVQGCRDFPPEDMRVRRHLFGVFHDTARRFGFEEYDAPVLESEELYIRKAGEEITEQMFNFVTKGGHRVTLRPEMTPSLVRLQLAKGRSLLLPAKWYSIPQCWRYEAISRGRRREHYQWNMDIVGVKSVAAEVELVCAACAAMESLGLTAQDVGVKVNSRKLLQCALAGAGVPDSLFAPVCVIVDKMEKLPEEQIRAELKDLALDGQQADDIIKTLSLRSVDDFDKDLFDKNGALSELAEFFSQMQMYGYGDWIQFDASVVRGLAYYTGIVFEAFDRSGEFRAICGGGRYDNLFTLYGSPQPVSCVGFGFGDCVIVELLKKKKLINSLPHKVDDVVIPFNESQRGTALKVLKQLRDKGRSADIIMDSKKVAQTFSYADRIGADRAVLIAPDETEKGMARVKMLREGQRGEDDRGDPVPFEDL
UniProt Q4DA54, 1-478: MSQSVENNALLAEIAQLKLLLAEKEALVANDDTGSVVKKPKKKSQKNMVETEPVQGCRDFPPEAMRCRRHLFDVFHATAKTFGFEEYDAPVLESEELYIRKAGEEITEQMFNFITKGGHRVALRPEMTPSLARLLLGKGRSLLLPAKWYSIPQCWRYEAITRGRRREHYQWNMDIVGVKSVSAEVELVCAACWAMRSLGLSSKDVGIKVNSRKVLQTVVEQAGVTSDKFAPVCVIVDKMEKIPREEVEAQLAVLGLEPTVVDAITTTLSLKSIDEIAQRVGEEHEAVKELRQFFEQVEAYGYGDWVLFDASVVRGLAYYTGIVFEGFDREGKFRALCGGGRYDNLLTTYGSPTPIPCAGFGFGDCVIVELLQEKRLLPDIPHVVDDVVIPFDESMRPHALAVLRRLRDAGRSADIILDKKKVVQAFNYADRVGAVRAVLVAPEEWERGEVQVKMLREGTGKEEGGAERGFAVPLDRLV

A: 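ClpP1P2, Mycobacterium tuberculosis (UniProt P9WPC5 and UniProt P9WPC3). Protease assay of ClpP1P2, read by the AMC dye that it sets free. Concentration: 50 µM. Higher reads as stronger inhibition, judged from the few compounds that gave an IC50. Most other retested compounds had strongly negative values. Of about 69,000 compounds tested this way, about 10 (0.015%) reached 50% or more in at least one test.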
B: 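Lysine-tRNA ligase, Plasmodium falciparum 3D7 (UniProt Q8IDJ8). Enzyme assay of the cytosolic lysyl-tRNA synthetase in 384-well plates, read by luminescence. Tested at 30 µM. Higher reads as stronger inhibition, judged from the few compounds that gave an IC50. Of about 69,000 compounds tested this way, about 49 (0.071%) reached 50% or more in at least one test.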
C: 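Tryptophan-tRNA ligase, Mycobacterium tuberculosis (UniProt P9WFT3). Enzyme assay of tryptophanyl-tRNA synthetase; the read-out is not stated. Tested at 10 µM. Direction is not recorded; retested compounds ran higher, which suggests that high means inhibition. About 65,000 compounds were tested under these conditions; 0.098% (about 64) showed 50% or more at least once.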
D: 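Histidine-tRNA ligase, Leishmania infantum (UniProt A4I591). Enzyme assay of histidyl-tRNA synthetase; the read-out is not stated. Tested at 30 µM. Higher reads as stronger inhibition (inferred: compounds with an IC50 in retests scored well above the rest). The assay is labelled LdHisRS but filed under L. infantum. Size under these conditions: about 69,000 compounds, about 410 of them at 50% or above in at least one test.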
E: 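Histidine-tRNA ligase, Trypanosoma cruzi CL Brener (UniProt Q4DA54). Enzyme assay of histidyl-tRNA synthetase; the read-out is not stated. Compounds at 30 µM. Higher reads as stronger inhibition (inferred: compounds with an IC50 in retests scored well above the rest). About 69,000 compounds were tested under these conditions; 0.045% (about 31) showed 50% or more at least once.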
F: 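Cell assay of Leishmania donovani living inside macrophages; the read-out is not stated. Tested at 30 µM. Direction is inferred from retests: higher values go with stronger inhibition. Size under these conditions: about 69,000 compounds, about 1,000 of them at 50% or above in at least one test.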

The filed quantity is “Percent Effect” (%).
The controls that fix the scale are not given in the record; negative values are as filed.
Compounds were drawn at random from those tested, without regard to their results.

* O=C(O)CN1CCC(c2ccccc2)CC1 : A: -11.77%; B: 2.84%; C: -0.2865%; D: 5.479%; E: -2.105%; F: 16.5%
* CCCc1nnc(NCCn2nc(C)c(Cl)c2C)o1 : A: -1.687%; B: -3.213%; C: -2.093%; D: 9.836%; E: 0.8%; F: 14.79%
* Cn1cccc1C(=O)NCc1cnc2n1CCN(CC1CCOCC1)C2 : A: 3.058%; B: 5.357%; C: 0.8994%; D: 24%; E: 3.093%
* CCS(=O)(=O)N1CCN(C(=O)C(C)C)CC2(CC(=O)N(C)C2)C1 (stereo unspecified) : A: -4.635%; B: -0.6388%; C: -4.869%; D: 7.895%; E: 0%; F: 7.343%
* O=C(NCc1cccc(N2CC=CC2)c1)NC1CC1 : A: 0.4309%; B: 0.8931%; C: 2.062%; D: 21.88%; E: -1.064%; F: 23.34%
* CCOc1ccc(C#N)cc1NCC(=O)NC(=O)NC : A: -11.41%; B: 1.505%; C: -6.361%; D: 8.929%; E: 5.233%; F: 3.895%
* COc1ccccc1CC1CCCN(C(=O)c2nccnc2N)C1 (stereo unspecified) : A: -6.108%; B: -1.752%; C: 2.023%; D: 4.712%; E: 2.674%; F: 15.56%
* CCOC1COC2(CCN(S(=O)(=O)c3cccc(F)c3)CC2)C1 (stereo unspecified) : A: 2.003%; B: 5.913%; C: -0.09588%; D: 5.882%; E: 7.104%; F: -15.08%
* O=C(CN1CCOC(Cn2cccn2)C1)Nc1nccs1 (stereo unspecified) : A: 9.149%; B: 7.275%; C: 0.8746%; D: 18.46%; E: 1.149%; F: 26.25%
* CCCC(Cn1cnc(-c2ccccc2)c1-c1cncn1CC)N(C)C (stereo unspecified) : A: 7.971%; B: 5.478%; C: 2.42%; D: 12%; E: 2.41%; F: 30.4%
* CN(CCCC1CCCO1)S(=O)(=O)NCc1ccccc1 (stereo unspecified) : A: -2.561%; B: 0.6613%; C: -1.61%; D: -3.279%; E: 2.4%; F: -23.8%
* COc1ccc(S(=O)(=O)NCC(c2cccn2C)N(C)C)c(C)c1 (stereo unspecified) : A: -12.61%; B: 4.423%; C: 1.72%; D: 13.22%; E: -1.02%; F: 30.23%

Repeated from the top, 2 entries:

SMILES	A	B	C	D	E	F
O=C(O)CN1CCC(c2ccccc2)CC1	-11.77	2.84	-0.2865	5.479	-2.105	16.5
CCCc1nnc(NCCn2nc(C)c(Cl)c2C)o1	-1.687	-3.213	-2.093	9.836	0.8	14.79

Measurements from “University of Dundee, Small-Polar-MMV Screening Library” (2021), ChEMBL document CHEMBL3988442.